PubChem BioAssay AID1259308 | NCATS, 2017
Assay: 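Knock-downs that increase output of a recombinant reporter protein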 (primary screen). Cell system: human HEK293 embryonic kidney cells stably expressing firefly luciferase (HEK-CMV-Luc2-Hygro). Knock-down reagent: single siRNA against human genes, 0.8 pmol siRNA per well. Duration: 72 h. Measured: 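Luciferase light (ONE-Glo) measured on one replicate plate set and viability (CellTiter-Glo) on the other, scaled to a negative control siRNA, with robust z-scores and luciferase per cell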. Direction: total luciferase, z-score and total luciferase, % of control: higher = more reporter protein produced. Active means: 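Active when the median/MAD z-score for overall luciferase is greater than 3; a gene was taken forward for validation with new siRNAs if at least two of its three siRNAs passed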. Calls: active = raised luciferase; inactive = no rise.
This is a random part of about 59,000 reagents tested. In the full data, about 1,510 (2.6%) are marked active. 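Calls use total luciferase alone and ignore viability, so some active siRNAs may act by altering cell number.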 A number with no mark means an inactive call. Reagents against one gene are numbered here. Further read-outs or replicates are left out here. No sequences are given here.

COL26A1 (GeneID 136227) #1 — total luciferase, z-score = 0.447; total luciferase, % of control = 90.8
COL26A1 (GeneID 136227) #2 — total luciferase, z-score = 0.994; total luciferase, % of control = 102
COL26A1 (GeneID 136227) #3 — total luciferase, z-score = -0.382; total luciferase, % of control = 74.3
AFF2 (GeneID 2334) #1 — total luciferase, z-score = 0.422; total luciferase, % of control = 90.3
AFF2 (GeneID 2334) #2 — total luciferase, z-score = 2.24; total luciferase, % of control = 126
AFF2 (GeneID 2334) #3 — total luciferase, z-score = 0.837; total luciferase, % of control = 98.5
SYNDIG1 (GeneID 79953) #1 — total luciferase, z-score = 0.783; total luciferase, % of control = 97.5
SYNDIG1 (GeneID 79953) #2 — total luciferase, z-score = 0.392; total luciferase, % of control = 89.7
SYNDIG1 (GeneID 79953) #3 — total luciferase, z-score = -0.305; total luciferase, % of control = 75.8
LINC01874 (GeneID 727944) #1 — total luciferase, z-score = 1.72; total luciferase, % of control = 116
LINC01874 (GeneID 727944) #2 — total luciferase, z-score = 0.367; total luciferase, % of control = 89.2
LINC01874 (GeneID 727944) #3 — total luciferase, z-score = -0.707; total luciferase, % of control = 67.8
PIKFYVE (GeneID 200576) #1 — total luciferase, z-score = 0.0218; total luciferase, % of control = 82.3
PIKFYVE (GeneID 200576) #2 — total luciferase, z-score = 1.32; total luciferase, % of control = 108
PIKFYVE (GeneID 200576) #3 — total luciferase, z-score = 1.73; total luciferase, % of control = 116
GRIN2B (GeneID 2904) #1 — total luciferase, z-score = -0.363; total luciferase, % of control = 74.7
GRIN2B (GeneID 2904) #2 — total luciferase, z-score = -0.284; total luciferase, % of control = 76.2
GRIN2B (GeneID 2904) #3 — total luciferase, z-score = -1.28; total luciferase, % of control = 56.3
PWWP3A (GeneID 84939) #1 — total luciferase, z-score = 0.681; total luciferase, % of control = 95.4
PWWP3A (GeneID 84939) #2 — total luciferase, z-score = 0.00759; total luciferase, % of control = 82
PWWP3A (GeneID 84939) #3 — total luciferase, z-score = -0.264; total luciferase, % of control = 76.6
ARMC1 (GeneID 55156) #1 — total luciferase, z-score = 0.318; total luciferase, % of control = 88.2
ARMC1 (GeneID 55156) #2 — total luciferase, z-score = -0.978; total luciferase, % of control = 62.4
ARMC1 (GeneID 55156) #3 — total luciferase, z-score = -0.362; total luciferase, % of control = 74.7
FLJ32154 (retired record) (GeneID 149650) #1 — total luciferase, z-score = 0.485; total luciferase, % of control = 91.5
FLJ32154 (retired record) (GeneID 149650) #2 — total luciferase, z-score = 1.21; total luciferase, % of control = 106
FLJ32154 (retired record) (GeneID 149650) #3 — total luciferase, z-score = -0.252; total luciferase, % of control = 76.9
SFXN2 (GeneID 118980) #1 — total luciferase, z-score = 0.344; total luciferase, % of control = 88.7
SFXN2 (GeneID 118980) #2 — total luciferase, z-score = 0.462; total luciferase, % of control = 91.1
SFXN2 (GeneID 118980) #3 — total luciferase, z-score = -0.953; total luciferase, % of control = 62.9
KCNF1 (GeneID 3754) #1 — total luciferase, z-score = -0.394; total luciferase, % of control = 74.1
KCNF1 (GeneID 3754) #2 — total luciferase, z-score = -2.92; total luciferase, % of control = 23.8
KCNF1 (GeneID 3754) #3 — total luciferase, z-score = 0.198; total luciferase, % of control = 85.8

Taken from above.
For “total luciferase, z-score”, COL26A1 (GeneID 136227) #3 shows -0.382
Result for SFXN2 (GeneID 118980) #3 under “total luciferase, z-score”: -0.953
Value for PWWP3A (GeneID 84939) #2 under “total luciferase, z-score”: 0.00759
